Values from PubChem BioAssay AID1159584 (Peter MacCallum Cancer Centre, 2016)
The whole screen tested about 18,000 reagents; below is a random part of them. The numbers tell different reagents against one gene apart. The record does not give: the amount of reagent, the time to read-out.

Purpose: 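Genes whose loss is lethal only together with E-cadherin loss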 (primary screen)
System: human MCF10A breast epithelial cells, parental and CDH1-null
Knock-down reagent: siRNA against human genes
Read-out: 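ATP luminescence (CellTiter-Glo) viability per line relative to mean mock wells over all plates, and the ratio of CDH1-null to parental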
Scale: CDH1-null / parental viability ratio: higher = CDH1-null cells survive relatively better than parental; CDH1-null viability vs mock: higher = more viable CDH1-null cells; parental viability vs mock: higher = more viable parental cells

| gene | reagent | CDH1-null / parental viability ratio | CDH1-null viability vs mock (fraction of mock) | parental viability vs mock (fraction of mock) |
| --- | --- | --- | --- | --- |
| ITPRID2 | 1 | 1 | 0.95 | 0.95 |
| RNF166 | 1 | 1 | 0.94 | 0.94 |
| FGF21 | 1 | 1.65 | 1.42 | 0.86 |
| MFSD11 | 1 | 0.63 | 0.44 | 0.7 |
| ARNT | 1 | 1.12 | 1.01 | 0.9 |
| KLF5 | 1 | 1.12 | 1.19 | 1.06 |
| POLR3F | 1 | 0.87 | 0.45 | 0.52 |
| RAPGEF3 | 1 | 0.74 | 0.46 | 0.62 |
| ZNF444 | 1 | 0.88 | 0.9 | 1.02 |
| AADACL4 | 1 | 1.17 | 0.96 | 0.82 |
| PROP1 | 1 | 0.97 | 0.74 | 0.76 |
| GTF2E1 | 1 | 0.86 | 0.74 | 0.86 |
| CLPTM1L | 1 | 1.11 | 0.8 | 0.72 |
| HRAS | 1 | 0.91 | 0.62 | 0.68 |
| PKP1 | 1 | 1.27 | 0.71 | 0.56 |
| OBSCN | 1 | 1.01 | 0.93 | 0.92 |
| OBSCN | 2 | 1.06 | 0.76 | 0.72 |
| LYSMD1 | 1 | 1.11 | 0.62 | 0.56 |
| ARF5 | 1 | 1 | 0.8 | 0.8 |
| CDC42EP5 | 1 | 1.15 | 0.6 | 0.52 |
| C15orf32 | 1 | 1.14 | 0.75 | 0.66 |
| HILPDA | 1 | 1.03 | 0.64 | 0.62 |
| ITGB4 | 1 | 0.83 | 0.71 | 0.86 |
| GPHB5 | 1 | 1.12 | 0.99 | 0.88 |
| SCAF4 | 1 | 0.92 | 0.94 | 1.02 |
| ATAT1 | 1 | 1.14 | 0.84 | 0.74 |
| NDUFA6 | 1 | 1.25 | 0.65 | 0.52 |
| KCNJ14 | 1 | 1.21 | 0.92 | 0.76 |

Entries above whose gene name starts with H or h (2):
| gene | reagent | CDH1-null / parental viability ratio | CDH1-null viability vs mock (fraction of mock) | parental viability vs mock (fraction of mock) |
| --- | --- | --- | --- | --- |
| HRAS | 1 | 0.91 | 0.62 | 0.68 |
| HILPDA | 1 | 1.03 | 0.64 | 0.62 |
